Values of other authors as cited in patent publication US20050107420A1 (Boehringe Ingelheim Pharma GmbH & Co. KG, priority 2002, published 2005).

Conditions: in vivo

oral absorption: good oral absorption
SMILES: COc1ccc(C(=O)Nc2c(Cl)cncc2Cl)c2cccnc12 [Formula D4418]
